Results are given in words; binding and its absence hold for the method and conditions named. In cells and extracts the contact can be indirect. A yes stands for co-enrichment or nearness to the bait. Other partners may have been found.
Biological target: SFB-RIP1 (UniProt Q13546)
Test: affinity purification with mass spectrometry; SFB-RIP1 transiently expressed in HEK293T; lysate on streptavidin Sepharose 4 h 4°C, biotin elution, then S-protein agarose overnight 4°C; nano-LC-MS/MS

The chains behind the UniProt entries cited, without tags or fusion partners.
UniProt Q13546: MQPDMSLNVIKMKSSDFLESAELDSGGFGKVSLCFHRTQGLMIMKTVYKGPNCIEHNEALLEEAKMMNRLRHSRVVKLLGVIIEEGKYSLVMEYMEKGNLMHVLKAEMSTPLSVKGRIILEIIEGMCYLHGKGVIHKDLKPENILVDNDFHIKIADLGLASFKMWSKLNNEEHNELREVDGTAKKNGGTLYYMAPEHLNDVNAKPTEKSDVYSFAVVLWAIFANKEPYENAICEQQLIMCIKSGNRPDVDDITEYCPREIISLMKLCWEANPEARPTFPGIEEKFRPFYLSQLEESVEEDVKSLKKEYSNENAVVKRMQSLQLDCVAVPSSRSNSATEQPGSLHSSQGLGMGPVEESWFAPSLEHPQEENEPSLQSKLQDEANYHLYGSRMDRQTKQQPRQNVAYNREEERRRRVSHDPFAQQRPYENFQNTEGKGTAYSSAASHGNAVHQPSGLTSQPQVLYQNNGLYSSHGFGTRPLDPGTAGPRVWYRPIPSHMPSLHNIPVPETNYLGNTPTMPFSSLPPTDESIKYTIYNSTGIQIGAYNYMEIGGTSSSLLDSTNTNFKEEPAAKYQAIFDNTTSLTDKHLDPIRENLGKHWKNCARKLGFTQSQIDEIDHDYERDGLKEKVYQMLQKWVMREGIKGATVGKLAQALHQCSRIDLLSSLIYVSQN

## heat shock protein 90-α, endogenous in HEK293T (from UniProt P07900 1-732)
  binding: binds
